Data as given in PubChem BioAssay AID662 (National Center for Advancing Translational Sciences (NCATS), 2007).
Several values for one entry are separate records, joined by “and”; a condition that tells them apart may be missing. Identical values can stand only once. The list shows a part of the results. The main result of the screen is listed elsewhere. These columns were measured beside it and carry no call. Most of these compounds were active or inconclusive in the main read-out, so they are no random draw. Potencies come from curve fits of mixed quality, noted in brackets.

Experiment: Cell signaling CRE-BLA (Fsk stim)
Details: CHO CRE-bla reporter (cAMP response element driving beta-lactamase), forskolin EC10, beta-lactamase ratio; measured here: 460 nm blue channel
In short: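 Titrated compounds plus EC10 NKH 477 on CHO CRE-bla cells, 3 h, 37 °C. CCF4, 2 h RT. Ratio 460/530 nm → AC50.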

| SMILES | AC50 |
| --- | --- |
| CCOC(=O)C1=C(C)NC(C)=C(C(=O)OC)[C@@H]1c1cccc(Cl)c1Cl | 12.6 µM [rising, single point] |
| Cc1ccccc1-n1c(=O)c2ccccc2n2c(=O)[nH]nc12 | 12.6 µM [rising, partial curve] |
| COc1ccc(-c2nc(-c3ccc(NC(=O)c4ccc(Br)o4)cc3)no2)cc1OC | 25.1 µM [falling, single point] |
| O=C(O)c1cccc(Cn2cc(Cl)cn2)c1 | 5.01 µM [falling, single point] |
| COc1cccc(NC(=O)C2C3C=CC4(O3)C2C(=O)N(C2CC2)C4C(=O)NC2CCCCC2C)c1 (stereo not drawn) | 10 µM [rising, partial curve] |
| C=CCn1cc(Cl)c(=O)n(CC=C)c1=O | 3.16 µM [rising, single point] |
| O=C1CCCC2=C1C(c1ccco1)Nc1ccc(C(=O)c3ccccc3)cc1N2 (stereo not drawn) | 7.94 µM [falling, partial curve] |
| O=C(CSc1nc(O)c(Cc2ccccc2F)c(=O)[nH]1)N1CCCCCC1 | 0.631 µM [falling, full curve] |
| COc1cc2c(cc1OC)CN(S(=O)(=O)c1ccc3c(c1)OCCO3)CC2 | 7.94 µM [falling, partial curve] |
| CCCSc1nc2c(c(=O)[nH]c(=O)n2C)n1C | 15.8 µM [rising, single point] |
| COc1cc(C(Nc2ccc3c(c2)OCO3)C(=O)NC2CCCCC2)cc(OC)c1OC (stereo not drawn) | 0.00398 µM [falling, full curve, poor fit] |
| O=C(NCc1cccs1)C(Cc1ccccc1)NS(=O)(=O)c1cccs1 (stereo not drawn) | 0.1 µM [falling, partial curve] |
| S=c1[nH]nc(Cc2ccccc2)n1-c1ccccc1 | 25.1 µM [rising, single point] |
| CN1CCN(C(=O)c2ccc(-c3nn(C)c(=O)c4ccccc34)cc2)CC1 | 12.6 µM [rising, single point] |
| CCOC(=O)c1cc(C(=O)OCC)cc(-n2c(C)cc(C(=O)CN3CCOCC3)c2C)c1 | 0.251 µM [falling, partial curve] |
| O=S(=O)(c1cccs1)N1CCN(C/C=C/c2ccccc2)CC1 | 0.02 µM [falling, full curve, poor fit] |
| COc1ccc(CNc2nc(-c3cccc(NS(C)(=O)=O)c3)nc3ccccc23)c(OC)c1 | 0.0794 µM [falling, partial curve] |
| CC1CN(C(=O)CN2C(=O)c3ccccc3S2(=O)=O)CC(C)O1 (stereo not drawn) | 5.01 µM [falling, single point] |
| CCOC(=O)c1sc(=N)n(-c2ccc(OC)cc2)c1C | 10 µM [rising, partial curve] |
| COc1cccc(Cn2c(=O)c(C)nc3cnc(N(C)C)nc32)c1 | 12.6 µM [rising, partial curve] |
| CN1CCN(c2ccc(NC(=O)Cc3ccccc3)cc2)CC1 | 0.00316 µM [falling, full curve, poor fit] |
| COC(=O)CCC(=O)Nc1ccc(S(=O)(=O)N2CCCCCC2)cc1 | 0.00398 µM [falling, full curve, poor fit] |
| CCOc1ccc2ccccc2c1C(=O)N[C@@H]1C(=O)N2[C@@H]1SC(C)(C)[C@@H]2C(=O)O | 7.94 µM [falling, partial curve] |

| SMILES | AC50 |
| --- | --- |
| N#Cc1cnn(-c2ccccc2)c1N | 0.00631 µM [falling, partial curve, poor fit] |
| C=C(C)COc1ccc2c(C)c(CC(=O)OC)c(=O)oc2c1C | 10 µM [rising, partial curve] |
| COc1cc(-c2nnc(SCC(=O)OC3CCCCC3)o2)cc(OC)c1OC | 15.8 µM [rising, single point] |
| Cc1cc(N)ccc1-n1c(C)ccc1C | 0.0251 µM [falling, full curve, poor fit] |
| COC(=O)Nc1ccc(S(=O)(=O)N2CCCc3ccccc32)cc1 | 0.0631 µM [falling, single point] |
| Cc1ccc(S(=O)(=O)N2CCN(S(=O)(=O)N(C)C)CC2)cc1 | 3.98 µM [rising, single point] |
| Cn1c(=O)c(C(=O)NC2CCCCCCC2)c(O)c2ccccc21 | 12.6 µM [rising, partial curve] |
| CCOC(=O)CC(=O)CSc1ccc2nnc(-c3ccccc3)n2n1 | 5.01 µM [rising, partial curve] |
| Cc1nc2ccc(Nc3nc4cc(S(=O)(=O)N5CCOCC5)ccc4o3)cc2s1 | 10 µM [rising, partial curve] |
| Cc1ccc2cccc(NC(=O)c3ccc(Br)o3)c2n1 | 10 µM [rising, single point] |
| NCCCNCCCCN(CCCN)/[N+]([O-])=N/O | 31.6 µM [falling, partial curve, poor fit] |
| O=C(NC1CCCCC1)c1cnn2c(C(F)(F)F)cc(-c3ccco3)nc12 | 0.398 µM [rising, full curve] |
| CC(=O)c1ccc(N2CCN(C(=O)c3ccc(NC(=O)C4CCCO4)cc3)CC2)cc1 (stereo not drawn) | 0.1 µM [falling, single point] |
| CC1=NN(c2ccccc2)C(=O)C1 | 15.8 µM [falling, partial curve, poor fit] and 126 nM [falling, full curve, poor fit] |
| CCOc1cc2[nH]c(=O)n(CCCCCC(=O)NCc3ccc4c(c3)OCO4)c(=O)c2cc1OCC | 12.6 µM [falling, partial curve] |
| O=C(COC(=O)C1CCN(S(=O)(=O)c2cccs2)CC1)c1cc2ccccc2o1 | 3.98 µM [falling, partial curve] |
| COc1ccc(C2C3=C(CC(C)(C)CC3=O)Oc3ncn4nc(-c5cccnc5)nc4c32)cc1OC (stereo not drawn) | 1.26 µM [rising, full curve] |
| Nc1ncnc2c1nc(-c1ccccc1)n2[C@H]1O[C@@H](CO)[C@@H](O)[C@H]1O | 3.98 µM [rising, single point] |
| CC(C)(C)Cn1nc(-c2ccc(Cl)cc2)c2c(N)ncnc21 | 0.398 µM [rising, full curve] |
| CCC(Cl)CC(Cl)C(Cl)C(Cl)C(Cl)C(C)Cl (stereo not drawn) | 2.51 µM [rising, full curve, poor fit] |
| Cc1ccc2c(Cl)cc(Cl)c(OCC(=O)NC(=O)NCc3ccco3)c2n1 | 12.6 µM [rising, partial curve] |
| O=C(Nc1ccc(F)c(F)c1)NC1CCCCC1 | 0.1 µM [rising, full curve] |
| CCCOc1ccccc1C1NC(=O)NC(C)=C1C(=O)OCCOC(C)C (stereo not drawn) | 0.00398 µM [falling, full curve, poor fit] |

| SMILES | AC50 |
| --- | --- |
| Cc1ccc(C2=Nc3ccccc3NC(C)(c3ccc(C)o3)C2)o1 (stereo not drawn) | 12.6 µM [rising, single point] |
| Cc1cc(C)n(-c2ccc(C(=O)Nc3sccc3C(N)=O)cc2)n1 | 5.01 µM [rising, partial curve] |
| NC(N)=NCCC[C@H](N)C(=O)O | 31.6 µM [falling, single point] |
| Nc1ccccc1OCCOCCOCCOc1ccccc1N | 25.1 µM [rising, single point] |
| Cc1ccc2c(c1C)NC(C(=O)O)C1CC=CC21 (stereo not drawn) | 3.98 µM [falling, single point] |
| CC(=O)CC1OC(=O)C(Br)=C1NCc1ccccc1 (stereo not drawn) | 10 µM [falling, single point] |
| O=C(C1COc2ccccc2O1)N1CCN(c2ccccc2)CC1 (stereo not drawn) | 0.00398 µM [falling, full curve] |
| Cc1cc(C)n2nc(SCC(=O)Nc3ccc(F)cc3)nc2n1 | 3.98 µM [rising, full curve] |
| CCOC(=O)C(C)Sc1nc2c(c(=O)[nH]c(=O)n2C)n1Cc1ccc(Cl)cc1 (stereo not drawn) | 15.8 µM [rising, partial curve] |
| O=C(O)CCCC(=O)N1CCN(c2cccc(Cl)c2)CC1 | 0.398 µM [rising, full curve, poor fit] |
| COc1cc(NC(=O)Nc2cccc(C(C)=O)c2)cc(OC)c1OC | 12.6 µM [rising, partial curve] |
| Cc1nnc(NC(=O)CCCN2C(=O)c3ccccc3C2=O)s1 | 3.16 µM [rising, single point] |
| CC1=Nn2c(nnc2-c2ccccc2Cl)SC1 | 2.51 µM [falling, full curve, poor fit] |
| Cn1c(CCCNC(=O)c2cccs2)nc2ccccc21 | 10 µM [rising, partial curve] |
| COc1ccc(C(=O)Nc2cc(C)on2)cc1 | 0.00316 µM [falling, full curve, poor fit] |
| COc1cc(C(=O)OCc2cc3ccccc3[nH]c2=O)cc(OC)c1OC | 1.26 µM [rising, partial curve] |
| CCOc1ccc2[nH]c3c(N4CCN(c5ccccn5)CC4)ncnc3c2c1 | 20 µM [falling, single point] |
| N#CCCSc1ncnc2c1oc1ccccc12 | 10 µM [rising, partial curve] |
| CCCOC(=O)c1cc(=O)[nH]c2ccccc12 | 10 µM [rising, single point] and 12.6 µM [rising, partial curve] |
| Clc1nc2ccccc2nc1Cl | 25.1 µM [falling, partial curve, poor fit] |
| COc1cc(-c2c(C#N)c(N)nc3c2CCCC3)ccc1O | 6.31 µM [rising, partial curve] |
| COc1ccc(-c2csc(N3CCN(C(=O)c4ccco4)CC3)n2)cc1 | 25.1 µM [falling, single point] |
